How the values were obtained:
Type in all cases: cell-based
[1] = system: four C. albicans and two C. glabrata strains; test: Cellular distribution of fluorescent probes, live cell fluorescence microscopy; settings: FIG. 3A
[2] = system: C. albicans SC5314 cells; test: Probe 1 localization and integrated density per cell with or without glucose, microscopy; settings: for localization of probe: FIG. 5B
[3] = system: C. albicans SC5314 cells; test: Probe 1 localization in PBS vs YPAD, microscopy; settings: 1 μM
[4] = system: C. albicans and C. glabrata strains; test: Probe 1 localization and uptake in caspofungin-resistant vs parental/responsive strains
[5] = system: C. albicans strains; test: Probe 1 uptake, responsive vs resistant strains, flow cytometry; settings: for average level of fluorescence (probe uptake): 1 μM, 15 min
[6] = system: C. glabrata strains; test: as above; settings: for average level of fluorescence (probe uptake): 1 μM, 15 min

`CC[C@H](C)C[C@H](C)CCCCCCCCC(=O)N[C@H]1C[C@@H](O)[C@@H](NCCN)NC(=O)[C@@H]2[C@@H](O)CCN2C(=O)[C@H]([C@H](O)CCN)NC(=O)[C@H]([C@H](O)[C@@H](O)c2ccc(OCc3cn(CCCNC(=O)c4ccc(-c5c6ccc(=[N+](C)C)cc-6oc6cc(N(C)C)ccc56)c(C(=O)[O-])c4)nn3)cc2)NC(=O)[C@@H]2C[C@@H](O)CN2C(=O)[C@H]([C@@H](C)O)NC1=O` [Compound 1] was tested, and the “time to fluorescently labeled vesicular structures” value ([1]; after addition of probe (1 μM), time-lapse) was no more than 1 min, the “time to localization to the vacuole” value ([1]; probe 1 μM in PBS, co-localization with CellTracker Blue CMAC) was no more than 15 min and the localization of probe ([2]; in the absence of glucose) was “accumulated primarily at the cell envelope”. For the same compound, the localization of probe ([2]; in the presence of glucose) was “accumulated in the vacuole”, the “Integrated density per cell” value ([2]; with 2% glucose (+)) was “(8.29 ± 2.56) × 10^6 RFU” and the “Integrated density per cell” value ([2]; without glucose (−)) was “(7.99 ± 1.64) × 10^6 RFU”. The localization of probe ([3]; PBS, 2 hours) was “remained concentrated at the vacuole”, the localization of probe ([3]; YPAD, after 2 h) was “entire cytoplasm was brightly stained” and the “resistant strains with statistically significant increase in probe uptake relative to parental strains” value ([4]; 1 μM, flow cytometry, FIG. 8B) was 80%. The “strains with uptake values above the cutoff lines confirmed as resistant” value ([4]; both species) was 100%, the “subcellular localization in echinocandin-resistant progeny strains” value ([4]; four resistant strains, 1 μM, 60 min PBS, FIG. 8A) was “localized to the vacuole” and the “echinocandin-resistant strains tested resistant using the calculated cutoff lines” value ([5]; C. albicans, probe uptake cutoff) was 71%. The “average level of fluorescence (probe uptake)” value (“average level of fluorescence” for short) ([5]; caspofungin-resistant C. albicans strains) was 10.8±1.4, the “average level of fluorescence” value ([5]; caspofungin-responsive C. albicans strains) was 6.3±0.5 and the “echinocandin-resistant strains tested resistant using the calculated cutoff lines” value ([6]; C. glabrata, probe uptake cutoff) was 77%. For the same compound, the “average level of fluorescence” value ([6]; caspofungin-resistant C. glabrata strains) was 6.5±0.5 and the “average level of fluorescence” value ([6]; caspofungin-responsive C. glabrata strains) was 3.9±0.2.
